Measured values reported in ChEMBL document CHEMBL4316593 (Eur J Med Chem, 2019).
Further values from the same series stand in other lists.

Tests used:
Format in all cases: cell-based
Conditions in all cases: U-87MG ATCC
[1] = Inhibition of RTK/PI3K/AKT/mTOR signaling in human U87 cells assessed as down regulation of KHDRBS3 gene expression at cytotoxic IC50 measured after 48 hrs relative to control
[2] = Inhibition of RTK/PI3K/AKT/mTOR signaling in human U87 cells assessed as down regulation of ZNF14 gene expression at cytotoxic IC50 measured after 48 hrs relative to control
[3] = Inhibition of RTK/PI3K/AKT/mTOR signaling in human U87 cells assessed as down regulation of NAV2 gene expression at cytotoxic IC50 measured after 48 hrs relative to control
[4] = Inhibition of RTK/PI3K/AKT/mTOR signaling in human U87 cells assessed as down regulation of ANKRD18A gene expression at cytotoxic IC50 measured after 48 hrs relative to control
[5] = Inhibition of RTK/PI3K/AKT/mTOR signaling in human U87 cells assessed as down regulation of PEPD gene expression at cytotoxic IC50 measured after 48 hrs relative to control
[6] = Inhibition of RTK/PI3K/AKT/mTOR signaling in human U87 cells assessed as down regulation of ASB8 gene expression at cytotoxic IC50 measured after 48 hrs relative to control
[7] = Inhibition of RTK/PI3K/AKT/mTOR signaling in human U87 cells assessed as down regulation of GLE1 gene expression at cytotoxic IC50 measured after 48 hrs relative to control
[8] = Inhibition of RTK/PI3K/AKT/mTOR signaling in human U87 cells assessed as down regulation of NCOA4 gene expression at cytotoxic IC50 measured after 48 hrs relative to control
[9] = Inhibition of RTK/PI3K/AKT/mTOR signaling in human U87 cells assessed as down regulation of VPS25 gene expression at cytotoxic IC50 measured after 48 hrs relative to control
[10] = Inhibition of RTK/PI3K/AKT/mTOR signaling in human U87 cells assessed as down regulation of RBSN gene expression at cytotoxic IC50 measured after 48 hrs relative to control
[11] = Inhibition of RTK/PI3K/AKT/mTOR signaling in human U87 cells assessed as down regulation of STAU1 gene expression at cytotoxic IC50 measured after 48 hrs relative to control
[12] = Inhibition of RTK/PI3K/AKT/mTOR signaling in human U87 cells assessed as down regulation of SH3GL1 gene expression at cytotoxic IC50 measured after 48 hrs relative to control
[13] = Inhibition of RTK/PI3K/AKT/mTOR signaling in human U87 cells assessed as down regulation of CYTH3 gene expression at cytotoxic IC50 measured after 48 hrs relative to control
[14] = Inhibition of RTK/PI3K/AKT/mTOR signaling in human U87 cells assessed as down regulation of MCMBP gene expression at cytotoxic IC50 measured after 48 hrs relative to control
[15] = Inhibition of RTK/PI3K/AKT/mTOR signaling in human U87 cells assessed as up regulation of MICALCL gene expression at cytotoxic IC50 measured after 48 hrs relative to control
[16] = Inhibition of RTK/PI3K/AKT/mTOR signaling in human U87 cells assessed as up regulation of DHRS3 gene expression at cytotoxic IC50 measured after 48 hrs relative to control
[17] = Inhibition of RTK/PI3K/AKT/mTOR signaling in human U87 cells assessed as up regulation of DNAJC22 gene expression at cytotoxic IC50 measured after 48 hrs relative to control
[18] = Inhibition of RTK/PI3K/AKT/mTOR signaling in human U87 cells assessed as up regulation of HMGA2 gene expression at cytotoxic IC50 measured after 48 hrs relative to control
[19] = Inhibition of RTK/PI3K/AKT/mTOR signaling in human U87 cells assessed as up regulation of BTBD19 gene expression at cytotoxic IC50 measured after 48 hrs relative to control
[20] = Inhibition of RTK/PI3K/AKT/mTOR signaling in human U87 cells assessed as up regulation of synaptotagmin like 3 gene expression at cytotoxic IC50 measured after 48 hrs relative to control
[21] = Inhibition of RTK/PI3K/AKT/mTOR signaling in human U87 cells assessed as up regulation of WD repeat domain 60 gene expression at cytotoxic IC50 measured after 48 hrs relative to control
[22] = Inhibition of RTK/PI3K/AKT/mTOR signaling in human U87 cells assessed as up regulation of unc-93 homolog B1 (C. elegans) gene expression at cytotoxic IC50 measured after 48 hrs relative to control
[23] = Inhibition of RTK/PI3K/AKT/mTOR signaling in human U87 cells assessed as up regulation of ilvB acetolactate synthase like gene expression at cytotoxic IC50 measured after 48 hrs relative to control
[24] = Inhibition of RTK/PI3K/AKT/mTOR signaling in human U87 cells assessed as up regulation of twinkle mtDNA helicase gene expression at cytotoxic IC50 measured after 48 hrs relative to control
[25] = Inhibition of RTK/PI3K/AKT/mTOR signaling in human U87 cells assessed as up regulation of IMP3, U3 small nucleolar ribonucleoprotein gene expression at cytotoxic IC50 measured after 48 hrs relative to control
[26] = Inhibition of RTK/PI3K/AKT/mTOR signaling in human U87 cells assessed as up regulation of chromosome 8 open reading frame 82 gene expression at cytotoxic IC50 measured after 48 hrs relative to control
[27] = Inhibition of RTK/PI3K/AKT/mTOR signaling in human U87 cells assessed as up regulation of DDB1 and CUL4 associated factor 6 gene expression at cytotoxic IC50 measured after 48 hrs relative to control
[28] = Inhibition of RTK/PI3K/AKT/mTOR signaling in human U87 cells assessed as up regulation of Rho GTPase activating protein 4 gene expression at cytotoxic IC50 measured after 48 hrs relative to control
[29] = Inhibition of RTK/PI3K/AKT/mTOR signaling in human U87 cells assessed as up regulation of aldehyde dehydrogenase 18 family member A1 gene expression at cytotoxic IC50 measured after 48 hrs relative to control
[30] = Inhibition of RTK/PI3K/AKT/mTOR signaling in human U87 cells assessed as up regulation of KDELR2 gene expression at cytotoxic IC50 measured after 48 hrs relative to control
[31] = Inhibition of RTK/PI3K/AKT/mTOR signaling in human U87 cells assessed as up regulation of EMC1 gene expression at cytotoxic IC50 measured after 48 hrs relative to control
[32] = Inhibition of RTK/PI3K/AKT/mTOR signaling in human U87 cells assessed as up regulation of RPL3 gene expression at cytotoxic IC50 measured after 48 hrs relative to control

Question: Which log2FC [1] does the source give for CC(=O)C(=NNc1ccccc1C#N)C(C)=O here?
Answer: -2.25

Question: And the log2FC [2]?
Answer: -1.96

Question: And the log2FC [3]?
Answer: -1.82

Question: What about the log2FC [4] of the same compound?
Answer: -1.35

Question: What about the log2FC [5] of the same compound?
Answer: -0.873

Question: What about the log2FC [6] of the same compound?
Answer: -0.872

Question: What about the log2FC [7] of the same compound?
Answer: -0.861

Question: What about the log2FC [8] of the same compound?
Answer: -0.841

Question: And the log2FC [9]?
Answer: -0.82

Question: What about the log2FC [10] of the same compound?
Answer: -0.719

Question: And the log2FC [11]?
Answer: -0.552

Question: And the log2FC [12]?
Answer: -0.539

Question: What about the log2FC [13] of the same compound?
Answer: -0.507

Question: And the log2FC [14]?
Answer: -0.377

Question: And the log2FC [15]?
Answer: 2.61

Question: What about the log2FC [16] of the same compound?
Answer: 2.31

Question: And the log2FC [17]?
Answer: 1.97

Question: And the log2FC [18]?
Answer: 1.64

Question: And the log2FC [19]?
Answer: 1.58

Question: And the log2FC [20]?
Answer: 1.54

Question: And the log2FC [21]?
Answer: 1.47

Question: What about the log2FC [22] of the same compound?
Answer: 1.33

Question: What about the log2FC [23] of the same compound?
Answer: 1.25

Question: And the log2FC [24]?
Answer: 1.23

Question: What about the log2FC [25] of the same compound?
Answer: 1.04

Question: And the log2FC [26]?
Answer: 1.03

Question: And the log2FC [27]?
Answer: 0.981

Question: What about the log2FC [28] of the same compound?
Answer: 0.793

Question: What about the log2FC [29] of the same compound?
Answer: 0.67

Question: And the log2FC [30]?
Answer: 0.557

Question: And the log2FC [31]?
Answer: 0.556

Question: And the log2FC [32]?
Answer: 0.539
